## Screening data, single-dose tests

Amino acid sequences for entries named in this document (tags omitted). Residues count along the entry.
UniProt I6X8D2, whole entry: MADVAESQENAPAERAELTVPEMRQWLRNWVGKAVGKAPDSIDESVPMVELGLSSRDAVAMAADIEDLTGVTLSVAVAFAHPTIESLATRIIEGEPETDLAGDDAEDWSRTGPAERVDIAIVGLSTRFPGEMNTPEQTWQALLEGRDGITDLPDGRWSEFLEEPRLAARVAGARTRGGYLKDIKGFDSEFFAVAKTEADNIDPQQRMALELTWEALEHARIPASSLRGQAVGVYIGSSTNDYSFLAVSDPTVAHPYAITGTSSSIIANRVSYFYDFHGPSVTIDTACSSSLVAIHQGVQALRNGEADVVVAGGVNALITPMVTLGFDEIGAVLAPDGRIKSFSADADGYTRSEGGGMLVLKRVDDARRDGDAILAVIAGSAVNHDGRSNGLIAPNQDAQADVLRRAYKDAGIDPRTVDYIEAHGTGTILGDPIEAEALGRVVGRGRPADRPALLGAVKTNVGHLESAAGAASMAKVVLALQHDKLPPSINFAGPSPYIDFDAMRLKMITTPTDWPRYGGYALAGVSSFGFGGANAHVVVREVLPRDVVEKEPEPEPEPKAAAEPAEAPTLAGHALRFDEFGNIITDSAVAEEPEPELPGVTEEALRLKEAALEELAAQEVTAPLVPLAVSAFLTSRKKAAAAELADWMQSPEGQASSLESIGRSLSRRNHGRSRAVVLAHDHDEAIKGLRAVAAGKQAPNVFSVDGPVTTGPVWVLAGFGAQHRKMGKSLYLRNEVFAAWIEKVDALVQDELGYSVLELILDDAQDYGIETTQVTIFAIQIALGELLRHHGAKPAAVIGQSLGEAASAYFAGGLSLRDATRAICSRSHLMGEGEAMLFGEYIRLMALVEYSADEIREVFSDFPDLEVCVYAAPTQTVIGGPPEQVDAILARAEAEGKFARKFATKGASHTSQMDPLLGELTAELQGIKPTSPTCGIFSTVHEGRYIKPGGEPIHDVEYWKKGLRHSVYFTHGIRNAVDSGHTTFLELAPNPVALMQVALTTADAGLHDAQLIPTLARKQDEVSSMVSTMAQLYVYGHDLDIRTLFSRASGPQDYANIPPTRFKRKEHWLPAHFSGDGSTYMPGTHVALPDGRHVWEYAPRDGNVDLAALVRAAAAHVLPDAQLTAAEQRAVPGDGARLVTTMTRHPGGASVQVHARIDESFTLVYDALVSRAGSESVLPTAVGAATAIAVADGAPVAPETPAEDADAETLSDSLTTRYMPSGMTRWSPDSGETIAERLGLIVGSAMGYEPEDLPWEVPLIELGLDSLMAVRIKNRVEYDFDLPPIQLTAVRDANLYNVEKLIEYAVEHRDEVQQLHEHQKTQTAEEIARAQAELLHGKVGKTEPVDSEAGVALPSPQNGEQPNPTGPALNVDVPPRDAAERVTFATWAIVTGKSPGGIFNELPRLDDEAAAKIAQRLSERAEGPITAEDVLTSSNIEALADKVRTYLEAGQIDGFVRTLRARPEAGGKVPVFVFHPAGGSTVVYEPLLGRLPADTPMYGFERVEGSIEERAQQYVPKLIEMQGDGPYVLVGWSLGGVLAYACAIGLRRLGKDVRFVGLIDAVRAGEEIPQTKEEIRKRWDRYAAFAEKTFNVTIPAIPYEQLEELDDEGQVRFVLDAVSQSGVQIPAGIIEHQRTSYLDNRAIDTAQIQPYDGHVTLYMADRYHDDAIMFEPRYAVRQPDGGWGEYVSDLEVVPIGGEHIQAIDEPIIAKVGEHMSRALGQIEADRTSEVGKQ
UniProt A4I591, 1-473: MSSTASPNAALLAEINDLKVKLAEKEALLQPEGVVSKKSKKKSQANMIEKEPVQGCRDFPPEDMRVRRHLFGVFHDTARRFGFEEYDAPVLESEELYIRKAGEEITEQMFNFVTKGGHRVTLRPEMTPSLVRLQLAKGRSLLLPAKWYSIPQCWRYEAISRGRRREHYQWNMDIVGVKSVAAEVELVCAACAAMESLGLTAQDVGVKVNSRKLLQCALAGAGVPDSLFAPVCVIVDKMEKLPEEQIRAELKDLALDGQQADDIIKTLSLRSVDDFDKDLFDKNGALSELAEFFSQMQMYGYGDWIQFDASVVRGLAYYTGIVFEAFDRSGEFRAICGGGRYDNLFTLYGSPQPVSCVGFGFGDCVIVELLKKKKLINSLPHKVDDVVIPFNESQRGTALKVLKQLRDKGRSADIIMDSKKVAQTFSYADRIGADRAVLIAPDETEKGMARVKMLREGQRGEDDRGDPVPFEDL

From ChEMBL document CHEMBL3988442, “University of Dundee, Small-Polar-MMV Screening Library” (2021).

Pks13 thioesterase: 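Polyketide synthase Pks13, Mycobacterium tuberculosis (UniProt I6X8D2). Enzyme assay of the thioesterase domain of polyketide synthase 13; the read-out is not stated. Concentration: 30 µM. The record gives no direction; the compounds picked for IC50 retests had high values, so higher reads as stronger inhibition. Size under these conditions: about 67,000 compounds, about 300 of them at 50% or above in at least one test.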
LiHisRS: 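Enzyme assay of histidyl-tRNA synthetase; the read-out is not stated. Target: Histidine-tRNA ligase, Leishmania infantum (UniProt A4I591). Tested at 30 µM. Higher reads as stronger inhibition (inferred: compounds with an IC50 in retests scored well above the rest). The assay is labelled LdHisRS but filed under L. infantum. About 69,000 compounds were tested under these conditions; 0.6% (about 410) showed 50% or more at least once.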

The filed quantity is “Percent Effect” (%). How 0% and 100% were set is not recorded. Most values in the screen are low, and negative values occur. This is an unselected part of the compounds tested.

SMILES: Cn1c(SCC(O)COCc2ccc(Cl)cc2)nnc1C1CC1 (configuration not stated)
Pks13 thioesterase: -8.548%
LiHisRS: 5.714%

SMILES: Cc1nc(CNC(=O)NCc2cccnc2N(C)C)cs1
Pks13 thioesterase: -7.007%
LiHisRS: 13.46%

SMILES: CC(C)(C)c1nnc(CN2CCCC2c2noc(C3CC3)n2)o1 (configuration not stated)
Pks13 thioesterase: -8.048%
LiHisRS: 24.62%

SMILES: Cn1cc(NC(=O)Cn2cc(-c3ccccc3)ncc2=O)cn1
Pks13 thioesterase: -32.3%
LiHisRS: 0%

SMILES: c1cn(CC2CC2)c(C2CCN(CCC3CCOC3)CC2)n1 (configuration not stated)
Pks13 thioesterase: -34.81%
LiHisRS: -565.6%

SMILES: O=C(C1CC1)N1CCc2nc(C3CCN(C(=O)C4CC4)C3)nc(O)c2C1 (configuration not stated)
Pks13 thioesterase: -7.195%
LiHisRS: 3.125%

SMILES: COC(CNC(=O)C1CC1)c1ccc(C)s1 (configuration not stated)
Pks13 thioesterase: 7.515%
LiHisRS: 12.99%

SMILES: COCCn1cncc1Cn1ncc2ccccc2c1=O
Pks13 thioesterase: -33.13%
LiHisRS: 9.79%

SMILES: CC(CCS(C)(=O)=O)NC(=O)NCc1ccc2c(c1)CCC2 (configuration not stated)
Pks13 thioesterase: -10.4%
LiHisRS: 13.13%

SMILES: CCOC(=O)Cn1c(=O)c(OCC)nc2cnccc21
Pks13 thioesterase: -10.51%
LiHisRS: 13.48%

SMILES: CCOc1cccc(COC(=O)c2cscn2)n1
Pks13 thioesterase: -34.16%
LiHisRS: 19.17%

SMILES: CN(C)CCC1CN(C(=O)c2cccc3c2OCC3)CCO1 (configuration not stated)
Pks13 thioesterase: -1.847%
LiHisRS: 4.082%

SMILES: CCc1nc2n(n1)CC(NCc1nc(C)c(C)o1)CC2 (configuration not stated)
Pks13 thioesterase: -3.861%
LiHisRS: 7.937%

SMILES: CNC(=O)c1ccc(=O)n(Cc2csc(N(C)C(C)=O)n2)c1
Pks13 thioesterase: -45.81%
LiHisRS: 22.86%

SMILES: CCc1nccn1-c1cccc(C2CCN(C(=O)COC)CC2)n1
LiHisRS: 8.966%

SMILES: CN1CCCC(c2nc3c([nH]2)CC(C)(C)CNC3=O)C1 (configuration not stated)
Pks13 thioesterase: -20.81%
LiHisRS: -3.03%

SMILES: COCCN1C[C@@H](C)[C@@]2(COCCN(C(=O)c3ccno3)C2)C1
Pks13 thioesterase: -19.66%
LiHisRS: 25%

SMILES: CC(C)c1cc(C(=O)NCCc2nc(-c3ccncc3)n[nH]2)[nH]n1
Pks13 thioesterase: -16.78%
LiHisRS: 4.196%

SMILES: CN(C)C(=O)COCc1cncc2c1CCN(Cc1ccccc1)C2
Pks13 thioesterase: -33.5%
LiHisRS: 36.99%

SMILES: NC(=O)N1CCC2(CCN(C(=O)c3cccnc3)CC2)C1
Pks13 thioesterase: -4.557%
LiHisRS: 6.364%

SMILES: CCn1cc(N2Cc3nc(N4CCC(C)CC4)ncc3C2=O)cn1
Pks13 thioesterase: -6.149%
LiHisRS: 17.24%

SMILES: COc1ccccc1C(C)CC(=O)N1CC[C@H](O)C1 (some centres not stated)
Pks13 thioesterase: -14.04%
LiHisRS: 10.26%

SMILES: COCCOc1ccc(NC(=O)C2CC(=O)N(C)C2)cn1 (configuration not stated)
Pks13 thioesterase: -21.83%
LiHisRS: -7.865%

SMILES: Cc1ccc(C(=O)N2C[C@@H](N3CCN(C)CC3)[C@H]3OCCC[C@H]32)cn1
Pks13 thioesterase: -6.126%
LiHisRS: 11.88%

SMILES: CC(NC1(CNC(=O)NC2CC2)CCOCC1)c1ccccc1 (configuration not stated)
Pks13 thioesterase: 6.438%
LiHisRS: -7.527%

SMILES: CN(C)Cc1nc(C2(NC(=O)Nc3ccccc3)CCCC2)no1
Pks13 thioesterase: -9.639%
LiHisRS: 10.2%

SMILES: Cc1cc(NC(=O)C(c2cccc(F)c2)N2CCOCC2)sn1 (configuration not stated)
Pks13 thioesterase: -19.15%
LiHisRS: 13.39%

SMILES: CC(C)S(=O)(=O)C(C)C(=O)NCc1ccccc1OCc1ccccc1 (configuration not stated)
Pks13 thioesterase: 17.02%
LiHisRS: 5.319%

SMILES: CCN(CC1CCOC1)C(=O)c1cn2ccc(C)cc2n1 (configuration not stated)
Pks13 thioesterase: -4.061%
LiHisRS: 22.45%

SMILES: CCCc1nc(C(=O)NCCCn2nnc3ccccc32)cs1
Pks13 thioesterase: -5.328%
LiHisRS: 19.35%

SMILES: O=C(NC1(C(=O)O)CCCCC1)C1Cc2ccccc2O1 (configuration not stated)
Pks13 thioesterase: -28.85%
LiHisRS: 13.09%

SMILES: Cc1c(COC(C)C)cccc1NC(=O)N1CCCC(CO)C1 (configuration not stated)
Pks13 thioesterase: -6.127%
LiHisRS: 17.12%

SMILES: CCC(=O)Nc1ccc(F)c(S(=O)(=O)NC(C)(C)C)c1
Pks13 thioesterase: 0.1188%
LiHisRS: 13.16%